Laboratory results: the supplement of paper PMC10338343
± gives the standard deviation. The list shows a part of the results, in another mix than the full data. The uncertainty is large for many entries. The list shows a part of the results.

The sequences below were run on MIWI (PIWIL1) piRISC loaded with L1MC piRNA (30 nt) (assay: pre-steady-state target cleavage rate (min^-1); higher = faster piRNA-guided slicing of the target). Settings: guide: L1MC piRNA 5'p-UAACUAAAUACUAUGCAAGCUGUAGGUCCU; auxiliary factor: none (no GTSF1).
Procedure, shortened: (§1)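 Reactions were run for 0–8 or 0–960 min at 33 °C in HEPES–potassium acetate buffer, combining 1 nM active affinity-purified piRISC with one synthetic guide, […] transcribed, DNA-blocked target RNA library and, in some cases, 500 nM GTSF1 partner protein. Sequencing of uncleaved targets followed, with normalisation to depth and to weakly complementary targets. Three trials were pooled, k3 was capped at 0.0001 min^-1, and the pre-steady-state cleavage rate was taken from a burst-and-steady-state fit.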

Row | Sequence | pre-steady-state target cleavage rate
1 | UCCUGGAUGUCCUUGCAUAGUAUUUCAGUUA | 0.00232 ± 0.0034
2 | UCCUGGAACAGCUUGCAUAAUAUUUAGUUA | 0.0418 ± 0.0079
3 | UCCUGGAUGUCGUUGCAUAGUCAUUUAGUUA | 0.00337 ± 0.0034
4 | UCCUGGAUGUCCUUGCAUAGAUUUUAGUAA | 0.000588 ± 0.011
5 | UCCUGGAUGUCGAACCGAUAGUAUUUAGUUA | 0.0005 ± 0.0081
6 | UCCUGCUACAGCUUGCAUUCAAUUUUCAAA | 0.000642 ± 0.011
7 | UCCUGGUACAGCUUGCUAUGUAUUUACAAA | 0.000977 ± 0.0065
8 | UCCUGGAUCAGCUUGCUAUGUAUUUAGAAA | 0.0013 ± 0.0025
9 | UCCUGGAUGUCGAACCAUAGUAUUUGGUUA | 0.000211 ± 0.018
10 | UCCUGGAUGUCGUUGCAUAGAAUUUAGAUA | 0.000284 ± 0.026
11 | UCCUGGAUGAGCUUGCAGUAGUAUUUAGUUA | 0.00117 ± 0.0081
12 | UCCUGGUUCAGCUUGGAUAGUAUUUAGUUA | 0.0603 ± 0.014
13 | UCCUGCUACAGCUUGCAUAGUAAAUACAAA | 0.000652 ± 0.014
14 | UCCUGGAUGUCCUUGACAUAGUAUUUAGUUA | 0.000836 ± 0.01
15 | UCCUGGAUGAGCUUGCAUACGUAUUUAGUUA | 0.000243 ± 0.013

The sequences below were run on EfPiwi piRISC loaded with L1MC piRNA (26 nt) (assay: pre-steady-state target cleavage rate (min^-1); guide: L1MC piRNA 5'p-UAACUAAAUACUAUGCAAGCUGUAGG; MIWI and MILI are mouse PIWI proteins and EfPiwi is from a freshwater sponge; tags in brackets are library labels; higher = faster piRNA-guided slicing of the target). Settings: auxiliary factor: 500 nM Ephydatia muelleri Gtsf1.
Procedure, shortened: as §1

Row | Sequence | pre-steady-state target cleavage rate
16 | UCCUGGUUCAGCUUGCAUAGUAUUUAGUAA | 0.00696 ± 0.0035
17 | UCCUGGUACAGCUUGCAUUGUAUUUUCAAA | 0.000757 ± 0.0048
18 | UCCUGGAUGUCGUUGCUUACUAUUUAGUUA | 0.000809 ± 0.0088
19 | UCCUGGAUCAGCUUGGAUUGUAUUUAGUUA | 0.000301 ± 0.02
20 | UCCUGGAUGUCCUUGCGAUAGUAUUUAGUUA | 0.00153 ± 0.0035
21 | UCCUGGAUGUCGAUGCAUAGUAUGUAGUUA | 0.000255 ± 0.023
22 | UCCUGGAUGUCGUUGCAUAGUAUAAAGUUA | 0.000349 ± 0.0077
23 | UCCUGGAUGUCGAAGCAUGGUAUUUAGUUA | 0.00117 ± 0.0056
24 | UCCUGGAUGUCGUUGCAUACAUUUUAGUUA | 0.000186 ± 0.017
25 | UCCUGGAUGUCGAAGCAAAGUAAUUAGUUA | 0.000737 ± 0.0097
26 | UCCUGCUACAGCUUGCAAUGUAUUUAGAAA | 0.00108 ± 0.0048
27 | UCCUGGAUCAGCUUGCAUACAUUUUUCAAA | 0.00117 ± 0.006
28 | UCCUGGUACAGCUUGGUAAGUAUUUACAAA | 0.000595 ± 0.007
29 | UCCUGGAUCCAGCUUGCAUAGUAUUUAGUUA | 0.126 ± 0.022
30 | UCCUGGAUGUCGAUGCAUAGUUUUAGUUA | 0.000275 ± 0.013
31 | UCCUGGAUGAGCUUGCAUAUGUAUUUAGUUA | 0.00171 ± 0.0034
32 | UCCUGGAUCAGCUUCCAUUGUAUUUAGUUA | 0.00234 ± 0.0024
33 | UCCUGGAUGUCCUUGCAUAUAUUUAGUUA | 0.000425 ± 0.0087

Row | Sequence | pre-steady-state target cleavage rate
34 | UCCUGGAAACAGCUUGCAUAGUAUUUAGUUA | 0.164 ± 0.034
35 | UCCUGGAUGUCGAAGCUAAGUAUUUAGUUA | 0.000596 ± 0.009
36 | UCCUGGAUGUCGUUGCUAAGUAUUUAGUUA | 0.00042 ± 0.0088
37 | UCCUGGAUGUGCUUGCAUAUGUAUUUAGUUA | 0.000372 ± 0.014
38 | UCCUGGAUGUCCUUGCAUAGUAUUUCAGUUA | 0.000606 ± 0.0075
39 | UCCUGGAUGUCGUUGCAUAGUCAUUUAGUUA | 0.000339 ± 0.011
40 | UCCUGGAUGUCCUUGCAUAGAUUUUAGUAA | 0.00183 ± 0.0047
41 | UCCUGGAUGUCGAACCGAUAGUAUUUAGUUA | 0.000248 ± 0.012
42 | UCCUGCUACAGCUUGCAUUCAAUUUUCAAA | 0.000379 ± 0.0078
43 | UCCUGGUACAGCUUGCUAUGUAUUUACAAA | 0.00124 ± 0.0064
44 | UCCUGGAUCAGCUUGCUAUGUAUUUAGAAA | 0.000231 ± 0.013
45 | UCCUGGAUGUCGAACCAUAGUAUUUGGUUA | 0.000129 ± 0.021
46 | UCCUGGAUGUCGUUGCAUAGAAUUUAGAUA | 0.000734 ± 0.0093
47 | UCCUGGAUGAGCUUGCAGUAGUAUUUAGUUA | 0.00118 ± 0.0085
48 | UCCUGGUUCAGCUUGGAUAGUAUUUAGUUA | 0.00792 ± 0.0035
49 | UCCUGCUACAGCUUGCAUAGUAAAUACAAA | 0.0021 ± 0.0034
50 | UCCUGGAUGUCCUUGACAUAGUAUUUAGUUA | 0.00194 ± 0.0034
51 | UCCUGGAUGAGCUUGCAUACGUAUUUAGUUA | 0.000822 ± 0.012
